PMC3724809, “Analysis of the Interaction Interfaces of the N-Terminal Domain from Pseudomonas aeruginosa MutL” (PLoS ONE, 2013)
These are yes or no findings as the source states them, for the method shown. Some entries that bind do so weakly or less than the wild type. Tags and fused reporters may be left off the sequences shown.

Molecular target: T1, Pseudomonas aeruginosa MutL C-terminal domain (PaCTD), from pTYB12-PaMutLΔ1–224, free of tag (Pseudomonas aeruginosa) (UniProt Q9HUL8)
T1 sequence: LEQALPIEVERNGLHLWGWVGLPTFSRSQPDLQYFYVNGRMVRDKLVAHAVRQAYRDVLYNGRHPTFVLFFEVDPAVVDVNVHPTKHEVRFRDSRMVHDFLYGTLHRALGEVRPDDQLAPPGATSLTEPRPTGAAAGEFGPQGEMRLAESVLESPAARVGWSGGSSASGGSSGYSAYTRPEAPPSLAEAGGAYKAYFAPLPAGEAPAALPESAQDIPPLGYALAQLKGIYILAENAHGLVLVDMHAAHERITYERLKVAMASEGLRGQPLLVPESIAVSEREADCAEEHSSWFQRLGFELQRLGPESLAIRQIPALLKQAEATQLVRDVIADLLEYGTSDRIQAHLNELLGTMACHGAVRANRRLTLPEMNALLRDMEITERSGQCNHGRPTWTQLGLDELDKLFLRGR
Assay: far-Western, overlay or dot blot; PaCTD (6.5 pmol) spotted on nitrocellulose; 0.6 µM His6-PaNTD in 20 mM Tris-HCl pH 8.0, 0.15 M KCl, 1 mM EDTA, 5 mM MgCl2, without nucleotide, with 0.1 mM ADP or with 0.1 mM ATP, overnight at 4°C; detected with anti-His6; both purified

B1: Pseudomonas aeruginosa MutL N-terminal domain (PaNTD, amino acids 1-339), His6-tagged (domain or fragment, UniProt Q9HUL8 1-339, looked up)
chain: MSEAPRIQLLSPRLANQIAAGEVVERPASVAKELLENSLDAGSRRIDVEVEQGGIKLLRVRDDGRGIPADDLPLALARHATSKIRELEDLERVMSLGFRGEALASISSVARLTMTSRTADAGEAWQVETEGRDMQPRVQPAAHPVGTSVEVRDLFFNTPARRKFLRAEKTEFDHLQEVIKRLALARFDVAFHLRHNGKTIFALHEARDELARARRVGAVCGQAFLEQALPIEVERNGLHLWGWVGLPTFSRSQPDLQYFYVNGRMVRDKLVAHAVRQAYRDVLYNGRHPTFVLFFEVDPAVVDVNVHPTKHEVRFRDSRMVHDFLYGTLHRALGEVRPD
notes: MutL of Pseudomonas aeruginosa, N-terminal ATPase domain, residues 1-339 of PaMutL, amplified from genomic DNA; monomeric MW 37.7 kDa; The pET-15b vector should add an N-terminal His6 tag with a thrombin site (surmised, as is cloning through NdeI); no cleavage of the tag is described; also called His6-PaNTD; His-tag PaNTD
  binding: binds
